Test results from PubChem BioAssay AID493014 (National Center for Advancing Translational Sciences (NCATS), 2011).
Values joined by “and” are separate entries in the source; they are usually repeats but may differ in a detail not shown here. Equal entries are not always repeated. About 170 (0.05%) of roughly 340,000 compounds were called active. The inconclusive results got no clear call from the source; some entries with a clear call stand among them for comparison. Calls follow the shape of the dose curve; as a rule, active = well fitted inhibition curve with a large enough effect in the signal ratio, with a control signal flat (not every such curve was filed as active); inconclusive = small, poorly fitted or top-dose-only effect, or effect the other way, or a change in a side signal; inactive = flat fitted curve, though single readings scatter; the % refers to the signal ratio. Where the call is inconclusive, the potency comes from a doubtful curve fit.

experiment: qHTS Assay to Find Inhibitors of Chronic Active B-Cell Receptor Signaling; settings: ABC-DLBCL IkBa-CBG/CBR reporter, luminescence ratio (green luciferase fused to IkBa over red control in TMD8 lymphoma cells), 4 h; activity change, negative = inhibition: at 46.1 µM (top of the series);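 as to activity change, negative = inhibition: plate controls were basal doxycycline-induced cells for no effect and cells given 10 µM MG132 for full effect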
How it was run: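 TMD8 ABC-DLBCL cells carrying doxycycline-inducible green luciferase fused to IkappaBalpha plus unfused red luciferase were exposed to compounds (up to 46 uM) for 4 hrs at 37C. Activity came from the overlap-corrected green/red luminescence ratio.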
Potency is read from the fitted curve at half-maximal effect.

SMILES | Potency | activity change, negative = inhibition
Cc1cccc(N2CCN(Cc3cn(C)nc3-c3ccccc3F)CC2)n1 | inconclusive: 20 µM [falling, single point] | 
CN(C)S(=O)(=O)c1ccc(Cl)c(C(=O)NCc2ccco2)c1 |  | inconclusive: 1.73%
C/C(=N\NC(=O)c1c([N+](=O)[O-])c(C)nn1C)c1ccc(NC(=O)C2CCCC2)cc1 | inconclusive: 2.82 µM [falling, partial curve, poor fit] | 
COCCNc1nc(C)cc(-c2cc(-c3ccc(Cl)cc3)on2)n1 | inconclusive: 10 µM [falling, partial curve] | 
CCNCCC(CCC(C)C)c1ccc2c(c1)OCO2 (stereo not given) |  | inconclusive: -23.9%
CCc1ccc(NC(=O)CSc2nc(=O)n(CCCN3CCOCC3)c3c2CCCC3)cc1 |  | inconclusive: -2.23%
O=C(CCCc1ccccc1)NC1CC(=O)N(c2ccc(Cl)cc2)C1 (stereo not given) |  | inactive: 4.75%
C/C(NC(=O)c1cccs1)=C1\C(=O)C[C@@H]2[C@H]1C2(C)C |  | inconclusive: 2.62%
COc1ccc(CC(=O)N2CCN(c3ccccc3OC)CC2)cc1OC |  | inconclusive: 0.277%
COc1ccc(C(=O)N2CCN(S(=O)(=O)c3ccc4c(c3)OCCO4)CC2)cc1OC |  | inconclusive: -16.5%
CC(C)(CO)N1CCN(C(=S)Nc2ccccc2)CC1 |  | inconclusive: 3.62%
CC(C)CCOCc1nc2sc3c(c2c(=O)[nH]1)CCC(C)C3 (stereo not given) |  | inconclusive: -3.85%
C[C@@H]1CC[C@]2(O[C@@H](CCO)C[C@@H](O)[C@@H]2O)O1 |  | inconclusive: 7.28%
O=C(NO)c1ccc(OC(F)F)cc1 |  | inconclusive: -9.86%
Cc1cnc(NC(=O)CSc2nnc(-c3ccccc3)o2)s1 | inconclusive: 29.1 µM [rising, single point] | 
COc1cc(/C=C2\SC(=Nc3ccccc3)N(CCc3c[nH]c4ccccc34)C2=O)ccc1OC(C)C(=O)O (stereo not given) |  | inconclusive: 14.2%
O=C(c1ccccc1)c1ccc(N2CCOCC2)c(NC(=O)c2ccco2)c1 | inconclusive: 32.6 µM [rising, partial curve, poor fit] | 
COCCN(CC(=O)Nc1ccccc1C(F)(F)F)C(=O)/C=C/c1ccc2ccccc2n1 |  | inconclusive: -9.93%
Cc1ccccc1-n1nc(-c2ccc(N)cc2)cc1N |  | inconclusive: -1.4%
CC1=C(C(=O)OC(C)C)C(c2ccccc2)NC(=S)N1C (stereo not given) |  | inactive: 0.874%
O=S1(=O)N=C(N(CCO)/N=C/c2ccccc2)c2ccccc21 | inconclusive: 8.91 µM [falling, partial curve, poor fit] | 
Cc1ccc(-c2ccc(/C=C(\C#N)C(N)=S)n2C)cc1 | inconclusive: 15.8 µM [falling, single point] | 
O=C(Nc1cccc(NC(=S)NC(=O)c2cccs2)c1)c1ccccc1 | inconclusive: 0.461 µM [falling, full curve, poor fit] | 
O=C(Cn1sc2ccccc2c1=O)NC12CC3CC(CC(C3)C1)C2 | inconclusive: 32.6 µM [rising, single point] | 
CCCCNC(=O)C(CC)Sc1nnc(-c2ccc(F)cc2)c(-c2ccc(F)cc2)n1 (stereo not given) |  | inactive: 0.986%
COCCCNC(=O)c1cc2c(s1)CS(=O)(=O)C2 | inconclusive: 29.1 µM [falling, single point] | 
CC(C)(C)Nc1ncnc2c1cnn2-c1ccccc1 |  | inconclusive: -9.83%

SMILES | Potency | activity change, negative = inhibition
COc1ccc(OCCn2cnc3ccccc32)cc1 |  | inconclusive: 3.13%
COc1cccc(C(=O)Nc2ccccc2N2CCCC2)c1 |  | inconclusive: 4.58%
CC1CCC(C(C)C)C(OC(=O)Cn2c(-c3ccccc3)[n+](C)c3ccccc32)C1 (stereo not given) |  | inconclusive: 6.87% and inconclusive: -1%
CCCc1nc2oc3c(NCC4CCCO4)ncnc3c2c2c1COC(C)(C)C2 (stereo not given) |  | inconclusive: -0.319%
c1ccc(N(c2ccccc2)c2nc(N3CCOCC3)nc(N3CCOCC3)n2)cc1 |  | inconclusive: 0.75%
O=C(CC1CCCCC1)NC1CCCC1 |  | inconclusive: 2.78%
CC(=O)Nc1ccc(C(=O)COC(=O)c2ccco2)c(F)c1 |  | inconclusive: 2.87%
COC(=O)CSc1cc([N+](=O)[O-])cc2c1c(C1OCCO1)nn2-c1ccccc1 |  | inactive: 0.161%
Cc1cccc(OCCC(=O)OC(C)C(=O)Nc2ccc(Cl)cn2)c1 (stereo not given) |  | inactive: -1.51%
S=C(NCc1ccco1)Nc1ccccc1 |  | inactive: 7.33%
CCCc1cc(=O)[nH]c(SCCOc2ccc(OCC)cc2)n1 |  | inconclusive: 6.64%
O=C(/C=C/c1ccc(Cl)c(Cl)c1)NCc1ccco1 |  | inconclusive: -0.49%
CCC(C)Nc1nc(Cl)nc(N(C#N)CN2C(=O)c3ccccc3S2(=O)=O)n1 (stereo not given) |  | inconclusive: 2.76%
COc1cc(C(=O)Nc2cc(-c3cn4cccnc4n3)ccc2C)cc(OC)c1OC |  | inconclusive: -2.96%
Cc1oc2c(C)c3oc(=O)c(CCC(=O)N4C[C@H]5C[C@@H](C4)c4cccc(=O)n4C5)c(C)c3cc2c1C | inconclusive: 35.5 µM [rising, partial curve, poor fit] | 
Cc1ccc(OC(=O)c2oc3ccc(F)cc3c2C)c(C)c1 | inconclusive: 31.6 µM [rising, single point] | 
O=C(Nc1ncccn1)c1cccs1 |  | inconclusive: -12.8%
COc1ccc(CCNS(=O)(=O)c2cc3c4c(c2)CCN4C(=O)CC3)cc1OC |  | inactive: 0.151%
CCOC(=O)CN1C(=O)C2(OCCCO2)c2ccccc21 |  | inconclusive: 3.99%
Cc1ncsc1C(=O)Nc1nc2c(s1)CCCC2 | inconclusive: 2.51 µM [falling, partial curve, poor fit] | 
COc1cc(NC(=O)Cn2nc(C(F)(F)F)c(Br)c2C)cc([N+](=O)[O-])c1 |  | inactive: 2.19%
CC(C)(C)c1ccc(S(=O)(=O)N2CCN(CC(=O)NC(=O)NC3CCCCC3)CC2)cc1 |  | inconclusive: 1.81%
COc1ccc(NC(=S)c2ccc3ccccc3n2)cc1 |  | inconclusive: -2.93%
Cc1cc(/C=C\c2ccccc2)nc2ccccc12 |  | inconclusive: -2.02%
Cc1ccc(-c2nn(-c3ccccc3)cc2C=O)o1 |  | inconclusive: -1.36%
COc1ccc(CCNc2oc(COc3ccccc3Cl)nc2C#N)cc1OC | inconclusive: 23.1 µM [falling, single point] | 
CCOC(=O)[C@H]1[C@H]2COc3ccc(Cl)cc3[C@@H]2N2C(=O)c3cc(F)ccc3NC(=O)[C@@]12C |  | inactive: 10.2%

SMILES | Potency | activity change, negative = inhibition
CCc1nc(N(CC)CC)c2oc3ccccc3c2n1 |  | inactive: -0.423%
Cc1cccc(NC(=O)Cc2coc3ccc4ccccc4c23)n1 |  | inconclusive: -15%
Cc1cccc(NC(=O)CSc2nc(=O)n(Cc3ccncc3)c3c2CCC3)c1C |  | inactive: -0.759%
Cc1ccccc1NC(=S)NC(=O)c1cc(-c2ccccc2)nc2ccccc12 | inconclusive: 15.8 µM [falling, partial curve, poor fit] | 
Cc1c(/C(O)=C2/C(=O)C(=O)N(CCN3CCOCC3)C2c2ccccn2)cnn1-c1ccccc1 (stereo not given) | inconclusive: 6.31 µM [rising, partial curve, poor fit] | 
Cc1ccc(N(CC(=O)NC2CCCCC2)C(=O)c2ccc(C)s2)cc1 | inconclusive: 1.12 µM [falling, full curve, poor fit] | 
Cc1ccc(Cl)cc1NC(=O)c1sc2nc(-c3ccccc3)cn2c1C |  | inconclusive: 8.15%
CN(C)c1ccc(/C=N\NC(=O)c2ccc(Cn3cc(Cl)cn3)cc2)cc1 |  | inactive: -0.644%
OCC#CCSc1nnc(-c2cccc3ccccc23)o1 |  | inconclusive: -7.3%
CCOC(=O)c1ccc(NC(=O)c2cn(CCC#N)nc2-c2ccc3c(c2)OCCO3)cc1 | inconclusive: 20.6 µM [falling, partial curve] | 
Cc1cc2c(=O)n(Cc3ccco3)c(SCC(=O)N3CCCc4ccccc43)nc2s1 |  | inconclusive: 17.1%
Cn1nnnc1Sc1ncnc2scc(-c3cccc(Br)c3)c12 |  | inactive: -0.6%
Cc1ccc(C(CC(=O)NCc2ccco2)c2ccccc2)c(O)c1 (stereo not given) | inconclusive: 32.6 µM [rising, partial curve, poor fit] | 
CCN(C(=O)C(C)OC(=O)CCCNC(=O)c1ccc(Cl)cc1)c1ccccc1 (stereo not given) |  | inactive: 15.2%
Cc1ccc(NC(=O)c2cc(NC(=O)c3ccco3)ccc2N2CCCCC2)cc1 | inconclusive: 3.55 µM [falling, partial curve] | 
O=C(Nc1nnc(SCc2ccccn2)s1)C1CC(=O)N(c2ccc(F)cc2)C1 (stereo not given) |  | inconclusive: 0.461%
CCOc1ccc(NC(=S)NC(C)CCc2ccccc2)cc1 (stereo not given) |  | inactive: -1.28%
COc1ccc(NC(C)=O)cc1S(=O)(=O)NC(C)c1ccc(-n2ccnc2)cc1 (stereo not given) |  | inconclusive: -2.38%
Cc1ccc(C(=O)Nc2ncc3c(Cl)cccc3n2)cc1 | inconclusive: 22.4 µM [falling, partial curve] | 
CCCCN(C)S(=O)(=O)c1cc(Br)cc2c1N(C(=O)C1CC1)CC2 |  | inactive: -0.449%
O=C(NC(=S)NCc1ccccc1)c1cccs1 |  | inconclusive: 4.16%
Cc1cc(C)c(S(=O)(=O)N2CCC(C(=O)OCc3c(C)noc3C)CC2)c(C)c1 |  | inconclusive: -0.518%
CC(C)CN(C(=O)c1ccc(=O)n(C)n1)c1nc2ccccc2s1 |  | inconclusive: 3.75%
CCOC(=O)CC(=O)CSC1=C(C#N)C(c2ccccc2OC)CC(=O)N1 (stereo not given) | inconclusive: 8.2 µM [falling, partial curve, poor fit] | 
O=C(N/N=C/c1ccc2c(c1)OCO2)c1cc(-c2ccco2)nc2ccccc12 |  | inconclusive: -9.09%
CCN(CC)S(=O)(=O)c1cccc(NC(=O)c2ccc(Br)cc2)c1 |  | inconclusive: 6.47%

2 entries from above, tab-delimited:
SMILES	Potency	activity change, negative = inhibition
OCC#CCSc1nnc(-c2cccc3ccccc23)o1		inconclusive: -7.3%
CCOC(=O)c1ccc(NC(=O)c2cn(CCC#N)nc2-c2ccc3c(c2)OCCO3)cc1	inconclusive: 20.6 µM [falling, partial curve]	

Copied from the results shown (4 entries):
SMILES | Potency | activity change, negative = inhibition
CCc1ccc(NC(=O)CSc2nc(=O)n(CCCN3CCOCC3)c3c2CCCC3)cc1 |  | inconclusive: -2.23%
O=C(CCCc1ccccc1)NC1CC(=O)N(c2ccc(Cl)cc2)C1 (stereo not given) |  | inactive: 4.75%
C/C(NC(=O)c1cccs1)=C1\C(=O)C[C@@H]2[C@H]1C2(C)C |  | inconclusive: 2.62%
COc1ccc(CC(=O)N2CCN(c3ccccc3OC)CC2)cc1OC |  | inconclusive: 0.277%
